Read-outs that look alike come from different tables or passages of the source. Results are given in words; binding and its absence hold for the method and conditions named. Binding seen in cells or lysates may run through a third protein. A yes stands for co-enrichment or nearness to the bait. Other partners may have been found.

By UniProt entry, the sequences of proteins in these tests, tags left out.
UniProt Q8TEK3: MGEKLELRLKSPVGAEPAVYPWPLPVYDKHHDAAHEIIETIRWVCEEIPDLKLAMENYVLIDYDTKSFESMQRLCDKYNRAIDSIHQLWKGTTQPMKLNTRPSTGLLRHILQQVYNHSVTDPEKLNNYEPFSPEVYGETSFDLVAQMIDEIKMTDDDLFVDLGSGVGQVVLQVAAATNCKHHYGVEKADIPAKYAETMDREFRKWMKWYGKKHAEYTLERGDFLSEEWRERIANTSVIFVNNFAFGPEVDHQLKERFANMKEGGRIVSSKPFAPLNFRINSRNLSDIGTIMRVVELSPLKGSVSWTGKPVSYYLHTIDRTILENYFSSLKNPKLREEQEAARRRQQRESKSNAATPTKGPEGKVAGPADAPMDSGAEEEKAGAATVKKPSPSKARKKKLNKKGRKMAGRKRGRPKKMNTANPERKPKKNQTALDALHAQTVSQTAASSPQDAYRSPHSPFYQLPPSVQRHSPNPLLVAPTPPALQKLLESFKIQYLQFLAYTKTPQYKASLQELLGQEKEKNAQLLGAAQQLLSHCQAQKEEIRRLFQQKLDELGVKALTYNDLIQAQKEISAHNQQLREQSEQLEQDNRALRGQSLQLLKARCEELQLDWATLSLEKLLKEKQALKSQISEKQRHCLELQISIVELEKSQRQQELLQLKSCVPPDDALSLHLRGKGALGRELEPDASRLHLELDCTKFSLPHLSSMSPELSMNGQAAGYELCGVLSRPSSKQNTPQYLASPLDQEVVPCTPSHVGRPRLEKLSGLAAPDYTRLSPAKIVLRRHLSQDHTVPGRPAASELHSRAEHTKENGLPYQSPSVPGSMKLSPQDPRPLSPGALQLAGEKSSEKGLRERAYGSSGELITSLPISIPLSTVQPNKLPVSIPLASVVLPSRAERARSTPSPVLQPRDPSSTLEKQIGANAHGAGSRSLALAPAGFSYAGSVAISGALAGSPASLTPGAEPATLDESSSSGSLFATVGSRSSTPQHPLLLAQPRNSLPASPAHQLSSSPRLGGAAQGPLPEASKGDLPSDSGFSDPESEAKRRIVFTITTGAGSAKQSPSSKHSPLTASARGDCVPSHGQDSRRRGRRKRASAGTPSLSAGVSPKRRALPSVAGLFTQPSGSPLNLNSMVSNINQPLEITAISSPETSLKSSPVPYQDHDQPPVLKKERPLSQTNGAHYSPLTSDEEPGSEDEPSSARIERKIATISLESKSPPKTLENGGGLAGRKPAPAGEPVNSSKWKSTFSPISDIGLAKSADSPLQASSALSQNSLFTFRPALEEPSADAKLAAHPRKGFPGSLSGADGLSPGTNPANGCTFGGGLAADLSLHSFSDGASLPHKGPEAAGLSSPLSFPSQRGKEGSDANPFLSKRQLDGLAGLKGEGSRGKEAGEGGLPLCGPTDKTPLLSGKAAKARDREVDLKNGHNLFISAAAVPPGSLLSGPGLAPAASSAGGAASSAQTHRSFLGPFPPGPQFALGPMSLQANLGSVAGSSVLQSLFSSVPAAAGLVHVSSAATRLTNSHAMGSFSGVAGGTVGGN
UniProt Q91ZW3: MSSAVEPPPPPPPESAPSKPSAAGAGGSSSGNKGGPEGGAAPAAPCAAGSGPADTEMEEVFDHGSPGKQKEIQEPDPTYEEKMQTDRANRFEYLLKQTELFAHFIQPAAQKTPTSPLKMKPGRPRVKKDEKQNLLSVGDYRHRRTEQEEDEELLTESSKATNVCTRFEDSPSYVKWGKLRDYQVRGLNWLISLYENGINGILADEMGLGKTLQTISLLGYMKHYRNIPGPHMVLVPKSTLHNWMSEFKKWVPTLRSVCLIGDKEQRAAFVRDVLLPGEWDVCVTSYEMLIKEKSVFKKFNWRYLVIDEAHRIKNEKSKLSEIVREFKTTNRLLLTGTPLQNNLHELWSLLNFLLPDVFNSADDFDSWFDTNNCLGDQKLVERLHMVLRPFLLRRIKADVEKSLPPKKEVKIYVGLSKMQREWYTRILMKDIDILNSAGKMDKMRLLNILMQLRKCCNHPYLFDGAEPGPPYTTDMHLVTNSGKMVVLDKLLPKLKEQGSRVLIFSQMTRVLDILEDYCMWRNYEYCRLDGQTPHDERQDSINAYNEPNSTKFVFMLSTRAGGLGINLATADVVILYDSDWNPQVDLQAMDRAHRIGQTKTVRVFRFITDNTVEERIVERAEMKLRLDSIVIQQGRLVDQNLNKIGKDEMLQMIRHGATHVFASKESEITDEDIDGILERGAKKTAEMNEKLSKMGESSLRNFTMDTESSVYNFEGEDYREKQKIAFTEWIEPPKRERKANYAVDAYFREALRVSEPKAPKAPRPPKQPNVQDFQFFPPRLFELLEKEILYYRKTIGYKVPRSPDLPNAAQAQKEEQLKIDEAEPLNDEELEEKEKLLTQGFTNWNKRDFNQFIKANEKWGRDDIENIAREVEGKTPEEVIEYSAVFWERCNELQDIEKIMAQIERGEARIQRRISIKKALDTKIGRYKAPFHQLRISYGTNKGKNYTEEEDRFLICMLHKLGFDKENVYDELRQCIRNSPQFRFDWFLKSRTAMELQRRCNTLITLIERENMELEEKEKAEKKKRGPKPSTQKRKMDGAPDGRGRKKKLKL

For assay [1], the target named is HA-tagged human DOT1L (human) (UniProt Q8TEK3). In words: affinity purification with mass spectrometry.
For assay [2] the target is unchanged. In words: affinity purification with mass spectrometry. This is another data set of the same source.

Consider “SMARCA5 (SNF2H) (from UniProt Q91ZW3 1-1051) (enzyme)”, for which the binding result in assay [1] is reported as “binds”.

B1: MLLT10 (AF10) (protein, UniProt O54826 1-1068)
chain: MVSSDRPVSLEDEVSHSMKEMIGGCCVCSDERGWAENPLVYCDGHGCSVAVHQACYGIVQVPTGPWFCRKCESQERAARVRCELCPHKDGALKRTDNGGWAHVVCALYIPEVQFANVSTMEPIVLQSVPHDRYNKTCYICDEQGRESKAATGACMTCNKHGCRQAFHVTCAQFAGLLCEEEGNGADNVQYCGYCKYHFSKLKKSKRGSNRSYEQSLSDSSSHSQDKHHEKEKKKYKEKDKHKQKHKKQPEPSPALVPSLTVTTEKTYTSTSNNSISGSLKRLEDTAARFTNANFQEVSAHTSSGKDVSEARGSEGKGKKSSAHSSGQRGRKPGAGRNPGTAVSASSPFPQGSFSGTPGSVKSSSGSSVQSPQDFLSFTDSDLRSDSYTHTQQPSSTKDVHKGESGSQEAAVNSFSSLVGHPVTSTVISQPKSFDNSPGELGSSSLPTAGYKRAQTSGIEEEAVKEKKRKGNKQSKHGPGRPKGNKNQENVSHLSVSSASPTSSVASAAGSVTSSSLQKSPTLLRNGSLQSLSVGSSPVGSEISMQYRHDGACPTTTFSELLNAIHNGIYNSNDVAVSFPNVVSGSGSSTPVSSSHIPQQSSGHLQQVGALSPSAASSVTPAAATTQANTVSGSSLSQAPAHMYGSRLNQNPSMAVLIAQSESSQTDQDLGDNARSLGGRGSSPRGSLSPRSPVSNLQLRYDQPSNSSLETVPPVAASIEQLLERQWSEGQQFLLEQGTPGDILGMLKSLHQLQVENRRLEEQIKNLTAKKERLQLLNAQLSVPFPAITTNPSPSHQMHTYTAQTAPPPDSLNSSKSPHIGNSFLPDNSLPVLNQDLTSSGQSTSSSSALSTPPPAGQSPAQQSSGVSGVQQVNGVTVGALASGMQTVTSTIPAVSAVGGIIGALPGNQLAINGIVGALNGVIQTPVTISQNPAPLTHTSVPPNAAHPMPAAALTNSASGLGLLSDQQRQMFIQQQQFQQLLNSQQLTPEQHQAFLYQLMQQQHHPPELQQLQLPGPTQIPINNLLAGAQAPPLHTATTNPFLTIHGDSTSQKVTRLSDKTGPVAQEKS
As for B1, in assay [2], the binding entry is listed as “binds”.

B2: HMGA1 (High Mobility Group protein A1) (protein, UniProt P17095 1-107)
chain: MSESGSKSSQPLASKQEKDGTEKRGRGRPRKQPPVSPGTALVGSQKEPSEVPTPKRPRGRPKGSKNKGAAKTRKVTTAPGRKPRGRPKKLEKEEEEGISQESSEEEQ
As for B2, the binding entry in assay [2] is recorded as “binds”.

Values taken from paper doi:10.1101/2021.10.21.465349.
